Measured values published in patent publication US20210054093A1.
Results are given in words; binding and its absence hold for the method and conditions named. Some entries that bind do so weakly or less than the wild type.

The chains behind the UniProt entries cited, without tags or fusion partners. Where a name states a change or a piece, a line headed by the entry shows the natural chain unless it says otherwise. Residues count along the entry.
UniProt Q08722: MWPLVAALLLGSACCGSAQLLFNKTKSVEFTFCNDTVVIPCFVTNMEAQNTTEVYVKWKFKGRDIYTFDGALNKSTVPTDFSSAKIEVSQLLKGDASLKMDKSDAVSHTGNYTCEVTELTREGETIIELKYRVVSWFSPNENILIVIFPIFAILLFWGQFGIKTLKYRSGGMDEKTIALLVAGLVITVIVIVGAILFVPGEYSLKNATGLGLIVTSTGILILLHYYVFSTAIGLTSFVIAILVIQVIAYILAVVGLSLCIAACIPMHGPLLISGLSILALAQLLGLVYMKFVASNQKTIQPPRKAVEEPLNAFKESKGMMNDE
human CD47 on Raji cells: residues 19-323 of Q08722
recombinant CD47-ECD (34C5 ELISA): residues 19-139 of Q08722

Experiments:
[1] = target: recombinant CD47-ECD (34C5 ELISA) (human) (UniProt Q08722); test: ELISA (legend of FIG. 20)
[2] = target: CD47 on human red blood cells (human) (UniProt Q08722); test: RBC binding assay (FIG. 25)
[3] = target: CD47 on human red blood cells (human) (UniProt Q08722); test: RBC binding assay (legend of FIG. 25)
[4] = target: human CD47 on Raji cells (human) (UniProt Q08722); test: flow cytometry on Raji cells (legend of FIG. 21)

Measured: binding

B1: CD47 antibody 34C5 (antibody, V domains shown)
VH: QVQLVQSGAEVKKPGSSVKVSCKASGYTFSSYYMHWVRQAPGQGLEWMGEINPNNARINFNEKFKTRVTLTVDKSTSTAYMELSSLRSEDTAVYYCTRGYYRYGAWFGYWGQGTLVTVSS
VL: DIQMTQSPSSLSASVGDRVTITCRASQDISDYLNWYQQKPGKAPKLLIYYISRLHSGVPSRFSGSGSGTDYTLTISSLQPEDFATYYCQQGHTLPWTFGGGTKVEIK
binds: all assays above
